Laboratory results: PubChem BioAssay AID504764 (Drosophila RNAi Screening Center, 2011)
The screen tested about 22,000 reagents; this is a random part of those that have a named target and a result. In the full data, 403 (1.9%) got an active call. 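Unnormalised raw counts per well; ratio z-scores behind the hit calls and whether each hit raises or lowers signal are not deposited.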 Reagents against one gene are numbered here. Not stated in the record: the amount of reagent.

Purpose: 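Knock-downs that raise or lower a Notch target reporter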 (primary screen)
Cells: Drosophila Kc167 cells
Reagents: long dsRNA against Drosophila genes
Timing: about 5 days (4 days dsRNA, then 24 h after transfection)
Challenge: transfection of constitutively active membrane-tethered Notch lacking the extracellular domain, read 24 h later
Read-out: 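Firefly luciferase from an E(spl)m3 reporter with active Notch, plus control-promoter and uninduced reporter wells for normalisation; unnormalised counts, duplicate wells a and b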
Reading the numbers: induced reporter light, run 1, well a and induced reporter light, run 1, well b: higher = more light from the Notch target reporter with active Notch; control promoter light, run 1, well a and control promoter light, run 1, well b: higher = more light from the viral control promoter (cell number, transfection, viability); uninduced reporter light, run 1, well a: higher = more light from the Notch target reporter without active Notch
Rule for the call: 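Hit if the duplicate-averaged log2 ratio of induced to control-promoter light gives a plate-wise z beyond ±2, or induced to uninduced beyond ±1.8; weak-control or discordant-duplicate wells dropped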
Calls: active = modifier hit (raised or lowered Notch signal); inactive = not a hit

Against CG13658 the deposit lists induced reporter light, run 1, well a = 1.07e5; induced reporter light, run 1, well b = 1.29e5; control promoter light, run 1, well a = 1.53e5; control promoter light, run 1, well b = 1.63e5; uninduced reporter light, run 1, well a = 11685; inactive.
Depletion of tfc #1 came out at: induced reporter light, run 1, well a = 1.71e5; induced reporter light, run 1, well b = 1.54e5; control promoter light, run 1, well a = 1.45e5; control promoter light, run 1, well b = 1.34e5; uninduced reporter light, run 1, well a = 15275; inactive.
Silencing of tfc #2 resulted in: induced reporter light, run 1, well a = 1.80e5; induced reporter light, run 1, well b = 1.54e5; control promoter light, run 1, well a = 1.23e5; control promoter light, run 1, well b = 1.32e5; uninduced reporter light, run 1, well a = 14875; inactive.
tfc #3 scored induced reporter light, run 1, well a = 1.08e5; induced reporter light, run 1, well b = 1.22e5; control promoter light, run 1, well a = 1.97e5; control promoter light, run 1, well b = 2.02e5; uninduced reporter light, run 1, well a = 8075; inactive.

Reformatted: entries from further up
{"Target gene": "tfc", "dsRNA no.": 1, "induced reporter light, run 1, well a": 1.71e5, "induced reporter light, run 1, well b": 1.54e5, "control promoter light, run 1, well a": 1.45e5, "control promoter light, run 1, well b": 1.34e5, "uninduced reporter light, run 1, well a": 15275, "activity call": "inactive"}
{"Target gene": "tfc", "dsRNA no.": 2, "induced reporter light, run 1, well a": 1.80e5, "induced reporter light, run 1, well b": 1.54e5, "control promoter light, run 1, well a": 1.23e5, "control promoter light, run 1, well b": 1.32e5, "uninduced reporter light, run 1, well a": 14875, "activity call": "inactive"}

More entries:
CG14356 scored induced reporter light, run 1, well a = 2.68e5; induced reporter light, run 1, well b = 2.69e5; control promoter light, run 1, well a = 2.52e5; control promoter light, run 1, well b = 2.28e5; uninduced reporter light, run 1, well a = 20550; inactive.
With knock-down of CG17010, the record shows induced reporter light, run 1, well a = 1.93e5; induced reporter light, run 1, well b = 2.31e5; control promoter light, run 1, well a = 1.77e5; control promoter light, run 1, well b = 1.65e5; uninduced reporter light, run 1, well a = 14668; inactive.
Knock-down of Zw resulted in: induced reporter light, run 1, well a = 1.04e5; induced reporter light, run 1, well b = 1.19e5; control promoter light, run 1, well a = 91780; control promoter light, run 1, well b = 44570; uninduced reporter light, run 1, well a = 8685; inactive.
After knock-down of Taf9 the results were induced reporter light, run 1, well a = 88900; induced reporter light, run 1, well b = 82215; control promoter light, run 1, well a = 75845; control promoter light, run 1, well b = 32590; uninduced reporter light, run 1, well a = 5615; inactive.
With knock-down of Yip1d1, the record shows induced reporter light, run 1, well a = 1.37e5; induced reporter light, run 1, well b = 1.86e5; control promoter light, run 1, well a = 1.70e5; control promoter light, run 1, well b = 1.61e5; uninduced reporter light, run 1, well a = 11695; inactive.
Silencing of CG2162 came out at: induced reporter light, run 1, well a = 46180; induced reporter light, run 1, well b = 54185; control promoter light, run 1, well a = 53855; control promoter light, run 1, well b = 13030; uninduced reporter light, run 1, well a = 9320; inactive.
After knock-down of Snr1, the record shows induced reporter light, run 1, well a = 1.13e5; induced reporter light, run 1, well b = 95570; control promoter light, run 1, well a = 1.13e5; control promoter light, run 1, well b = 95330; uninduced reporter light, run 1, well a = 16580; inactive.
For Lcp3 the deposit lists induced reporter light, run 1, well a = 1.52e5; induced reporter light, run 1, well b = 1.24e5; control promoter light, run 1, well a = 1.56e5; control promoter light, run 1, well b = 1.99e5; uninduced reporter light, run 1, well a = 13582; inactive.
